PubChem BioAssay AID1259254 – NCATS | 2017

Aim: 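Genome-wide screen for genes that prevent DNA re-replication in cancer cells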 (primary screen)
System: human HCT116 colorectal cancer cells
Knock-down reagent: single siRNA against human genes
Duration: 3 days
Measurement: 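Nuclei stained with Hoechst and imaged; cell-cycle phase assigned by DNA content; G2 share scaled per plate, non-targeting siRNA 0%, GMNN siRNA 100%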
Reading the numbers: G2 robust z-score and G2 cells, % of GMNN control: higher = more G2 cells, more excess DNA replication; raw share of cells in G2: higher = larger share of cells with G2 DNA content
Rule for the call: 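Active siRNAs have a G2 robust z of 5 or more median absolute deviations over the median, which in these data means about 38% or higher of GMNN control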
In all, the deposit lists about 59,000 reagents; shown is a part drawn at random. Of all reagents, about 1,550 (2.6%) are marked active. 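G2 share is only a proxy for re-replication; each gene was hit by three separate siRNAs, and active genes were retested.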 Raw values vary from plate to plate and are shown uncorrected. Not given: the amount of reagent.

no.	target	PubChem SID	G2 robust z-score	G2 cells, % of GMNN control	raw share of cells in G2 (%)	activity call
1	UBAP2	SID160744478	-0.085	2.37	5.43	inactive
2	UBAP2	SID160744480	3.84	30	16.6	inactive
3	UBAP2	SID160744481	5.06	38.6	15.4	active
4	SEMA7A	SID160720138	-0.314	0.757	4.98	inactive
5	SEMA7A	SID160720139	-1.3	-6.19	3.09	inactive
6	SEMA7A	SID160720140	1.64	14.5	11.1	inactive
7	CAMLG	SID160736157	-0.484	-0.438	5.1	inactive
8	CAMLG	SID160736167	4.7	36	17.3	inactive
9	CAMLG	SID160736177	-0.728	-2.15	2.68	inactive
10	RNASE11	SID160755993	0.0366	3.23	5.38	inactive
11	RNASE11	SID160755994	1.13	10.9	6.58	inactive
12	RNASE11	SID160755995	-0.0179	2.84	2.65	inactive
13	HAVCR2	SID160732039	2.12	17.9	11.4	inactive
14	HAVCR2	SID160752811	1.14	11	8.18	inactive
15	HAVCR2	SID160752812	-0.378	0.306	5.56	inactive
16	RWDD1	SID160733505	-0.65	-1.61	2.66	inactive
17	RWDD1	SID160740742	-0.179	1.71	4.21	inactive
18	RWDD1	SID160740743	-0.678	-1.8	3.51	inactive
19	SEMG2	SID160716569	-0.388	0.237	5.07	inactive
20	SEMG2	SID160716570	-0.307	0.807	4.54	inactive
21	SEMG2	SID160716571	-0.709	-2.02	2.62	inactive
22	ARPC4	SID160730404	4.22	32.7	17.6	inactive
23	ARPC4	SID160775533	-0.0357	2.72	4.13	inactive
24	ARPC4	SID160775544	1.12	10.9	9.15	inactive
25	C3orf62	SID160765419	-1.4	-6.91	1.4	inactive
26	C3orf62	SID160765420	-0.739	-2.23	2.43	inactive
27	C3orf62	SID160765421	0.491	6.42	7.39	inactive
28	ATG16L1	SID160742830	-1.08	-4.66	2.77	inactive
29	ATG16L1	SID160742832	-0.941	-3.65	2.81	inactive
30	ATG16L1	SID160742833	1.44	13.1	12.2	inactive
31	POLR2J2	SID160724937	-0.163	1.82	6.83	inactive
32	POLR2J2	SID160724938	-0.703	-1.98	3.98	inactive
33	POLR2J2	SID160762022	-1.01	-4.12	2.97	inactive
34	OCRL	SID160778346	0.308	5.13	6.46	inactive
35	OCRL	SID160778347	-0.503	-0.571	4.13	inactive
36	OCRL	SID160778349	1.44	13.1	7.44	inactive
37	DMRTC1	SID160747330	-0.228	1.37	5.18	inactive
38	DMRTC1	SID160747331	-0.752	-2.32	3.57	inactive
39	DMRTC1	SID160747333	-0.294	0.897	2.93	inactive
40	HIPK1	SID160761176	-0.657	-1.66	5.07	inactive
41	HIPK1	SID160761177	0.139	3.95	6.63	inactive
42	HIPK1	SID160761178	-0.692	-1.9	3.07	inactive
43	CACTIN	SID160746883	-0.514	-0.652	4.09	inactive
44	CACTIN	SID160746884	-0.264	1.11	4.99	inactive
45	CACTIN	SID160746885	3.41	27	11.6	inactive
46	KRTAP27-1	SID160769012	0.733	8.12	6.73	inactive
47	KRTAP27-1	SID160769013	0.0333	3.2	4.42	inactive
48	KRTAP27-1	SID160769014	-0.265	1.1	3.47	inactive
49	SEMA4G	SID160746651	-0.368	0.379	5.8	inactive
50	SEMA4G	SID160746652	-0.281	0.993	4.7	inactive
51	SEMA4G	SID160746653	2.46	20.2	11.6	inactive
52	SOS1	SID160717186	-0.524	-0.719	5.44	inactive
53	SOS1	SID160717187	-0.616	-1.37	4.08	inactive
54	SOS1	SID160717188	0.126	3.85	5.23	inactive
55	MIR205HG	SID160768642	2.17	18.2	10.7	inactive
56	MIR205HG	SID160768643	-0.647	-1.58	2.82	inactive
57	MIR205HG	SID160768644	0.0454	3.29	4.24	inactive
58	MYOT	SID160722355	2.92	23.5	14.1	inactive
59	MYOT	SID160722356	-0.0255	2.79	5.88	inactive
60	MYOT	SID160722357	-0.826	-2.84	2.23	inactive
61	PNKP	SID160730368	4.88	37.3	17.2	inactive
62	PNKP	SID160730369	-0.297	0.876	5.51	inactive
63	PNKP	SID160730370	-0.369	0.371	3.8	inactive
64	PPFIBP1	SID160720160	1.18	11.2	10.1	inactive
65	PPFIBP1	SID160720161	-0.399	0.158	3.96	inactive
66	PPFIBP1	SID160720162	1.11	10.7	7.15	inactive
67	SLC6A16	SID160738891	0.192	4.32	8.12	inactive
68	SLC6A16	SID160738892	0.156	4.07	5.54	inactive
69	SLC6A16	SID160738893	0.392	5.73	5.86	inactive
